Our source for the binding values is patent publication WO2012017069A1.

No constants are given. Whether binding was seen depends on the method and setting. Some results given as binding are weak or reduced against the parent protein; the word gives no strength. Tags and fused reporters may be left off the sequences shown.

In assay [1] the target is fusion protein according to the invention with linker peptide according to SEQ ID No. 2 (human) (UniProt P05455). Description: SPR, dimerisation (Fig. 8G). Background: In SPR one partner is held on a chip, and binding of the other changes the refractive index at the surface.
For assay [2] the target is unchanged. Description: SPR, fusion protein with linker peptide SEQ ID No. 2 coupled to the chip (Fig. 8G).

As to WEVLEGEVEKEALKKIIEDQQESLNKWKSKGRRFKGKGKGNK (peptide, not shown: large carriers) [fusion protein according to the invention with linker peptide according to SEQ ID No. 2], the binding entry in assay [1] and in assay [2] was “binds” in each case.
